Source: patent publication US9926581B2, “Fagopyritol synthase genes and uses thereof” (Cornell Research Foundation, Inc., priority 2002, dated 2018)
Where “and” joins values, the source holds several entries; their conditions need not be identical. Equal entries are not always repeated.

Assays:
immature soybean embryos = assay: Embryo feeding experiments: cyclitols fed to immature soybean embryos, precocious maturation by slow drying, soluble carbohydrates in axis and cotyledons; format: in vivo, Glycine max (L.) Merrill
soybean explants [1] = assay: Soybean explant feeding with 50 mM free cyclitols for one week, soluble carbohydrates in mature seeds; format: in vivo, Glycine max (L.) Merrill cv. Chippewa 64
buckwheat embryos = assay: Soluble carbohydrates in buckwheat embryos from seeds matured at 15, 22 or 30° C.; format: in vivo, Fagopyrum esculentum Moench; settings: harvested at 28 DAP and dried 2 weeks at 12% RH, mean ± SE
buckwheat explants = assay: Buckwheat explant feeding with 100 mM cyclitol in 1% sucrose for 5 days, soluble carbohydrates in embryos and leaf disks; format: in vivo, Fagopyrum esculentum; settings: replicate values
soybean explants [2] = assay: Soybean explant feeding 3 days with 50 mM cyclitol in 1% sucrose, slow drying time course, soluble carbohydrates in axis, cotyledon, seed coat and leaf
[3] = 3 days transport of sucrose (1%) and D-chiro-inositol (50 mM), after 2 days slow drying, Rep 1
[4] = 3 days transport of sucrose (1%) and D-chiro-inositol (50 mM), after 2 days slow drying, Rep 2
[5] = 3 days transport of sucrose (1%) and D-chiro-inositol (50 mM), after 4 days slow drying, Rep 1
[6] = 3 days transport of sucrose (1%) and D-chiro-inositol (50 mM), after 4 days slow drying, Rep 2
[7] = 3 days transport of sucrose (1%) and D-chiro-inositol (50 mM), after 14 days slow drying, Rep 1
[8] = 3 days transport of sucrose (1%) and D-chiro-inositol (50 mM), after 14 days slow drying, Rep 2
[9] = 3 days transport of sucrose (1%) and D-chiro-inositol (50 mM), before slow drying, Rep 1
[10] = 3 days transport of sucrose (1%) and D-chiro-inositol (50 mM), before slow drying, Rep 2
[11] = 3 days transport of sucrose (1%) and D-pinitol (50 mM), after 2 days slow drying, Rep 1
[12] = 3 days transport of sucrose (1%) and D-pinitol (50 mM), after 2 days slow drying, Rep 2
[13] = 3 days transport of sucrose (1%) and D-pinitol (50 mM), after 4 days slow drying, Rep 1

OC[C@H]1O[C@H](OC2[C@@H](O)[C@H](O)C(O)[C@H](O)[C@@H]2O)[C@H](O)[C@@H](O)[C@H]1O (stereo partly drawn) [Galactinol, galactinol, reference compound]
increase in concentration after feeding D-chiro-inositol (immature soybean embryos; axis and cotyledons, concentration series, 14 days precocious maturation): did not increase | change in accumulation after feeding 25 to 50 mM myo-inositol (immature soybean embryos; cotyledons): doubled | decrease in concentration after feeding D-pinitol and D-chiro-inositol compared to D-pinitol alone (immature soybean embryos; cotyledons, 14 days): 50% | change in concentration after feeding 50 mM myo-inositol to explants (soybean explants [1]; axis and cotyledon tissue of mature seeds): 50% | increase after feeding 50 mM D-chiro-inositol to explants (soybean explants [1]; cotyledon tissues): remained unchanged | Soluble carbohydrates in buckwheat embryos (buckwheat embryos; seeds matured at 15° C.): 0 μg/embryo | Soluble carbohydrates in buckwheat embryos (buckwheat embryos; seeds matured at 22° C.): 1.57 ± 0.79 μg/embryo | Soluble carbohydrates in buckwheat embryos (buckwheat embryos; seeds matured at 30° C.): 1.60 ± 0.04 μg/embryo | Soluble carbohydrates in embryos of seeds from buckwheat explants (buckwheat explants; fed 100 mM D-chiro-inositol in 1% sucrose solution 5 days, 2 days slow drying): 9.84 μg/embryo and 3.63 μg/embryo | Soluble carbohydrates in embryos of seeds from buckwheat explants (buckwheat explants; fed 100 mM D-chiro-inositol in 1% sucrose solution 5 days, 4 days slow drying): 6.82 μg/embryo and 3.90 μg/embryo and 2.70 μg/embryo | Soluble carbohydrates in embryos of seeds from buckwheat explants (buckwheat explants; fed 100 mM D-chiro-inositol in 1% sucrose solution 5 days, 7 days slow drying): 7.21 μg/embryo and 1.71 μg/embryo and 0 μg/embryo | Soluble carbohydrates in embryos of seeds from buckwheat explants (buckwheat explants; fed 100 mM D-chiro-inositol in 1% sucrose solution, after 1 day feeding): 0 μg/embryo | Soluble carbohydrates in embryos of seeds from buckwheat explants (buckwheat explants; fed 100 mM D-chiro-inositol in 1% sucrose solution, after 5 days feeding): 3.15 μg/embryo and 3.75 μg/embryo and 2.62 μg/embryo | Soluble carbohydrates in embryos of seeds from buckwheat explants (buckwheat explants; fed 100 mM D-pinitol in 1% sucrose solution 5 days, 2 days slow drying): 10.69 μg/embryo and 7.75 μg/embryo and 2.79 μg/embryo | Soluble carbohydrates in embryos of seeds from buckwheat explants (buckwheat explants; fed 100 mM D-pinitol in 1% sucrose solution 5 days, 4 days slow drying): 2.68 μg/embryo and 4.14 μg/embryo and 3.31 μg/embryo | Soluble carbohydrates in embryos of seeds from buckwheat explants (buckwheat explants; fed 100 mM D-pinitol in 1% sucrose solution 5 days, 7 days slow drying): 0 μg/embryo (2×) and 1.24 μg/embryo | Soluble carbohydrates in embryos of seeds from buckwheat explants (buckwheat explants; fed 100 mM D-pinitol in 1% sucrose solution, after 1 day feeding): 2.51 μg/embryo | Soluble carbohydrates in embryos of seeds from buckwheat explants (buckwheat explants; fed 100 mM D-pinitol in 1% sucrose solution, after 5 days feeding): 0 μg/embryo and 3.26 μg/embryo and 3.40 μg/embryo | Soluble carbohydrates in embryos of seeds from buckwheat explants (buckwheat explants; fed 100 mM myo-inositol in 1% sucrose solution 5 days, 2 days slow drying): 10.36 μg/embryo and 3.46 μg/embryo | Soluble carbohydrates in embryos of seeds from buckwheat explants (buckwheat explants; fed 100 mM myo-inositol in 1% sucrose solution 5 days, 4 days slow drying): 8.41 μg/embryo and 4.79 μg/embryo | Soluble carbohydrates in embryos of seeds from buckwheat explants (buckwheat explants; fed 100 mM myo-inositol in 1% sucrose solution 5 days, 7 days slow drying): 2.09 μg/embryo and 0 μg/embryo | Soluble carbohydrates in embryos of seeds from buckwheat explants (buckwheat explants; fed 100 mM myo-inositol in 1% sucrose solution, after 1 day feeding): 0 μg/embryo | Soluble carbohydrates in embryos of seeds from buckwheat explants (buckwheat explants; fed 100 mM myo-inositol in 1% sucrose solution, after 5 days feeding): 19.19 μg/embryo and 3.71 μg/embryo | Soluble carbohydrates in embryos of seeds from buckwheat explants (buckwheat explants; fed 1% sucrose (without cyclitols) solution 5 days, 2 days slow drying): 15.87 μg/embryo and 10.02 μg/embryo and 5.03 μg/embryo | Soluble carbohydrates in embryos of seeds from buckwheat explants (buckwheat explants; fed 1% sucrose (without cyclitols) solution 5 days, 4 days slow drying): 26.38 μg/embryo and 8.45 μg/embryo | Soluble carbohydrates in embryos of seeds from buckwheat explants (buckwheat explants; fed 1% sucrose (without cyclitols) solution 5 days, 7 days slow drying): 0 μg/embryo and 5.93 μg/embryo | Soluble carbohydrates in embryos of seeds from buckwheat explants (buckwheat explants; fed 1% sucrose (without cyclitols) solution, after 5 days feeding): 1.47 μg/embryo and 19.03 μg/embryo | Accumulation of soluble carbohydrates in soybean axis (soybean explants [2]; [3]): 6.29 μg/axis | Accumulation of soluble carbohydrates in soybean cotyledon (soybean explants [2]; [3]): 42.99 μg/cotyledon | Accumulation of soluble carbohydrates in soybean seed coat (soybean explants [2]; [3]): 0 μg/seed coat | Accumulation of soluble carbohydrates in soybean axis (soybean explants [2]; [4]): 10.19 μg/axis | Accumulation of soluble carbohydrates in soybean cotyledon (soybean explants [2]; [4]): 42.35 μg/cotyledon | Accumulation of soluble carbohydrates in soybean seed coat (soybean explants [2]; [4]): 1.30 μg/seed coat | Accumulation of soluble carbohydrates in soybean axis (soybean explants [2]; [5]): 3.46 μg/axis | Accumulation of soluble carbohydrates in soybean cotyledon (soybean explants [2]; [5]): 15.89 μg/cotyledon | Accumulation of soluble carbohydrates in soybean seed coat (soybean explants [2]; [5]): 0 μg/seed coat | Accumulation of soluble carbohydrates in soybean axis (soybean explants [2]; [6]): 2.25 μg/axis | Accumulation of soluble carbohydrates in soybean cotyledon (soybean explants [2]; [6]): 32.53 μg/cotyledon | Accumulation of soluble carbohydrates in soybean seed coat (soybean explants [2]; [6]): 1.19 μg/seed coat | Accumulation of soluble carbohydrates in soybean axis (soybean explants [2]; [7]): 4.23 μg/axis | Accumulation of soluble carbohydrates in soybean cotyledon (soybean explants [2]; [7]): 11.02 μg/cotyledon | Accumulation of soluble carbohydrates in soybean seed coat (soybean explants [2]; [7]): 0 μg/seed coat | Accumulation of soluble carbohydrates in soybean axis (soybean explants [2]; [8]): 2.27 μg/axis | Accumulation of soluble carbohydrates in soybean cotyledon (soybean explants [2]; [8]): 9.34 μg/cotyledon | Accumulation of soluble carbohydrates in soybean seed coat (soybean explants [2]; [8]): 1.60 μg/seed coat | Accumulation of soluble carbohydrates in soybean axis (soybean explants [2]; [9]): 0 μg/axis | Accumulation of soluble carbohydrates in soybean cotyledon (soybean explants [2]; [9]): 14.29 μg/cotyledon | Accumulation of soluble carbohydrates in soybean axis (soybean explants [2]; [10]): 2.71 μg/axis | Accumulation of soluble carbohydrates in soybean cotyledon (soybean explants [2]; [10]): 0 μg/cotyledon | Accumulation of soluble carbohydrates in soybean axis (soybean explants [2]; [11]): 6.40 μg/axis | Accumulation of soluble carbohydrates in soybean cotyledon (soybean explants [2]; [11]): 28.42 μg/cotyledon | Accumulation of soluble carbohydrates in soybean seed coat (soybean explants [2]; [11]): 0 μg/seed coat | Accumulation of soluble carbohydrates in soybean axis (soybean explants [2]; [12]): 10.37 μg/axis | Accumulation of soluble carbohydrates in soybean cotyledon (soybean explants [2]; [12]): 40.81 μg/cotyledon | Accumulation of soluble carbohydrates in soybean seed coat (soybean explants [2]; [12]): 0 μg/seed coat | Accumulation of soluble carbohydrates in soybean axis (soybean explants [2]; [13]): 5.46 μg/axis | Accumulation of soluble carbohydrates in soybean cotyledon (soybean explants [2]; [13]): 20.87 μg/cotyledon
